These results are taken from the supplement of paper PMC7666118.

By UniProt entry, the sequences of proteins in these tests, tags left out. Where a name states a change or a piece, a line headed by the entry shows the natural chain unless it says otherwise.
UniProt P48736: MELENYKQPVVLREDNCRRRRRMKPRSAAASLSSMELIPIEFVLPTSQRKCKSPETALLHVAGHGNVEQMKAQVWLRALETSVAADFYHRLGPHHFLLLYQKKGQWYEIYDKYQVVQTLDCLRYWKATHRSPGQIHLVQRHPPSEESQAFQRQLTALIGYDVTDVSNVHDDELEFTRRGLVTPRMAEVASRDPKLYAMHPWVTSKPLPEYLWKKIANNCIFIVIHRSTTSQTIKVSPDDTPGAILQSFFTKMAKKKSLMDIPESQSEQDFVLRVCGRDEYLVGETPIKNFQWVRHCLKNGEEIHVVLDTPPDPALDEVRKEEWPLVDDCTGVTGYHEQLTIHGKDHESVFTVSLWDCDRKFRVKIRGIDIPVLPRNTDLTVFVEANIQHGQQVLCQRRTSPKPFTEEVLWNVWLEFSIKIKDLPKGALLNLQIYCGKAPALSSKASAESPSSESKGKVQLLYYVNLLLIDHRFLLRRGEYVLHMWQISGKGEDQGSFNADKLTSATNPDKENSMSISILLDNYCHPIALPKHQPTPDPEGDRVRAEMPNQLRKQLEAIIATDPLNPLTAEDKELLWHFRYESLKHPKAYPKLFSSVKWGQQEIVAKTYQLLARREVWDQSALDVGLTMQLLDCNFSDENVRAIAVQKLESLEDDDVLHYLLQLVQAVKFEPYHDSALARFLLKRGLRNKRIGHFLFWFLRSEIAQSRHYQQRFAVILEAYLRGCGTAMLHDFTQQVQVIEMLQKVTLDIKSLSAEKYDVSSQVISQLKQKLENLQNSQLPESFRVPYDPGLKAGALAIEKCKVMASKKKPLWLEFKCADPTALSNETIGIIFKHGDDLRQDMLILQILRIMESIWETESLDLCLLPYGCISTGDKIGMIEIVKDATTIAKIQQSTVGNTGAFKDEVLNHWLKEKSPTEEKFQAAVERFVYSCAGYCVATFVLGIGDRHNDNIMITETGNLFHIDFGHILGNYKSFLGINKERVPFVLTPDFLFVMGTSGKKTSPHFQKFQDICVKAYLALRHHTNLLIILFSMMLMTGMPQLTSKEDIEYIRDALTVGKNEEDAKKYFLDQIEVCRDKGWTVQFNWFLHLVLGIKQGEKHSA
UniProt Q8TF05: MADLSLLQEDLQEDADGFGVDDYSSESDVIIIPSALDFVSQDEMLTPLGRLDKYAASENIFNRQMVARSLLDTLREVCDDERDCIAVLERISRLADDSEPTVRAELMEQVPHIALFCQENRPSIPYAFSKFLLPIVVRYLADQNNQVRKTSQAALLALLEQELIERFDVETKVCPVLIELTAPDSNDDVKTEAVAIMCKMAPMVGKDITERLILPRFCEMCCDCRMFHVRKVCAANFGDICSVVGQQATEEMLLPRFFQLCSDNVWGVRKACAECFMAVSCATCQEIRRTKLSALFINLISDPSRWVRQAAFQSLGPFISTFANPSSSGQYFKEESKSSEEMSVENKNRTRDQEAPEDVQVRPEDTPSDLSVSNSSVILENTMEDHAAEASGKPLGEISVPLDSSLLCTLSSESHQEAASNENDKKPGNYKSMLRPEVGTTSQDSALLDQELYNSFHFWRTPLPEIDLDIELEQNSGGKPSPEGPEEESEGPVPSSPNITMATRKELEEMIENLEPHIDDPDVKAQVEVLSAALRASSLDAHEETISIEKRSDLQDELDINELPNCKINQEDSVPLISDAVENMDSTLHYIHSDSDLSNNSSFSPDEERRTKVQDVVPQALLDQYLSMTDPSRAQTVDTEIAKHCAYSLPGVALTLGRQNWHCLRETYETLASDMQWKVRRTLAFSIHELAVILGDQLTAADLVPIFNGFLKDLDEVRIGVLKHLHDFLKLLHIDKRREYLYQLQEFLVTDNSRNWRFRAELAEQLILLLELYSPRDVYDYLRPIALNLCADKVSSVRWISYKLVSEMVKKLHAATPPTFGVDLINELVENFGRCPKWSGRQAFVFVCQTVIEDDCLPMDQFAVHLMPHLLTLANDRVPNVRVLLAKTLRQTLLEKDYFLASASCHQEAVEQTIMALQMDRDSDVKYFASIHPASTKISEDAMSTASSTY
UniProt O75928, whole entry: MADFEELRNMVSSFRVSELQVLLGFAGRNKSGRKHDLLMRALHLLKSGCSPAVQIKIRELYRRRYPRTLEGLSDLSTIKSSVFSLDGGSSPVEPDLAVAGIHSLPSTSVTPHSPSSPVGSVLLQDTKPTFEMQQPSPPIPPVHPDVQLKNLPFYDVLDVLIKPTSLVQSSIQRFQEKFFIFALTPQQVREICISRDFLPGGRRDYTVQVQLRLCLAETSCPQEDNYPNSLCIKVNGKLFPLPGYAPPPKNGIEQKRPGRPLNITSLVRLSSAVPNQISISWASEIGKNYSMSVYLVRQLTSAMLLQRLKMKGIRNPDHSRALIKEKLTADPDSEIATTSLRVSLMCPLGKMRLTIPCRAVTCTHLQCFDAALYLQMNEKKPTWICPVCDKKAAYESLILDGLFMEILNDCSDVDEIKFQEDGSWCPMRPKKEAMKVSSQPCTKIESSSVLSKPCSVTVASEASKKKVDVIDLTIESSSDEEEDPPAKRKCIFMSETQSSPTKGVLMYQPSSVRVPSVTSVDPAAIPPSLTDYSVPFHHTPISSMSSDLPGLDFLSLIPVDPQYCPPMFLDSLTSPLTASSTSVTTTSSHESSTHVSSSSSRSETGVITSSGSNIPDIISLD
UniProt Q96SB3: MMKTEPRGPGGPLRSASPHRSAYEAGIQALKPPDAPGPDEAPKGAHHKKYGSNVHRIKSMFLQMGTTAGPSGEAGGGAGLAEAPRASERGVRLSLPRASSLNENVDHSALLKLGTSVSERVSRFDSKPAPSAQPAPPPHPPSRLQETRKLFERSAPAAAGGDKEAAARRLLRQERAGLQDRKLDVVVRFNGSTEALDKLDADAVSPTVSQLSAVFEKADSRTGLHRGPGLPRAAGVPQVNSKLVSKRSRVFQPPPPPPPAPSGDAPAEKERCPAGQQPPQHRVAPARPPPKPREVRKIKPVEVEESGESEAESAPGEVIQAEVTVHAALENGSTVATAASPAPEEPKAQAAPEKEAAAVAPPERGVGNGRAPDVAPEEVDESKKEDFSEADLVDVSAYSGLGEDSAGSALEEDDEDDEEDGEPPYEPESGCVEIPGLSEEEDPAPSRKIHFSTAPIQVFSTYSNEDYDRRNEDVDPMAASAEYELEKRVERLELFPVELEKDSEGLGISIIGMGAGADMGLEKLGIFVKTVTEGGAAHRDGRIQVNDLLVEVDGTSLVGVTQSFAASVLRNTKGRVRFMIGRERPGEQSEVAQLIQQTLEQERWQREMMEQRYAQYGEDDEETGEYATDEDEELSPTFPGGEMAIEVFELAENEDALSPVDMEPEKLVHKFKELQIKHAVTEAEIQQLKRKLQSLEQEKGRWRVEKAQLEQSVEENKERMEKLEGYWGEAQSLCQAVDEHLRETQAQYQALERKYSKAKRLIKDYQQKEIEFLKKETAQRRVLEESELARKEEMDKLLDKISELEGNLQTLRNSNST
UniProt P49593: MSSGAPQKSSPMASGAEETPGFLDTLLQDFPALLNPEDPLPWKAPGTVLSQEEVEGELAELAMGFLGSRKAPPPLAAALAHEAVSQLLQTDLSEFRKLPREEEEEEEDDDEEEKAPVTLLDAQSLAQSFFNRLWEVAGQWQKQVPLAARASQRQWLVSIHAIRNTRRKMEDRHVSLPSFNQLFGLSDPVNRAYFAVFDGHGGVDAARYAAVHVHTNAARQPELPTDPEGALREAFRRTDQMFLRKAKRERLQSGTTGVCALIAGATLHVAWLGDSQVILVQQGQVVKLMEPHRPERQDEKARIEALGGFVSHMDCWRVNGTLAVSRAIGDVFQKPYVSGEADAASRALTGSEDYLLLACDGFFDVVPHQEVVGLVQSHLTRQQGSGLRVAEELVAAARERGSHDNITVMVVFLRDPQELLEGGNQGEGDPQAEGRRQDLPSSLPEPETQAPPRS
UniProt Q8NCC3: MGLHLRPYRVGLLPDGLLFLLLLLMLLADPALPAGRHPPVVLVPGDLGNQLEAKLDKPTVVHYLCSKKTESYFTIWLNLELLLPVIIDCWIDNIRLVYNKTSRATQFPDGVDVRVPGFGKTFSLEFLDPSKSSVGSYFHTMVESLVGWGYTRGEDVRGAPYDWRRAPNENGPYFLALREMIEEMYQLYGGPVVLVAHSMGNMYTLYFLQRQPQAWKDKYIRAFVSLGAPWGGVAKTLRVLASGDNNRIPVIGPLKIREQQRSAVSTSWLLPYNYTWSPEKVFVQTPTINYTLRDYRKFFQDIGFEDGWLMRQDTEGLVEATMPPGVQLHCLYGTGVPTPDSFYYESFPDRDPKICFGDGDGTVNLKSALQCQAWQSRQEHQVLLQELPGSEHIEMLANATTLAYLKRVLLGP
UniProt Q9P215: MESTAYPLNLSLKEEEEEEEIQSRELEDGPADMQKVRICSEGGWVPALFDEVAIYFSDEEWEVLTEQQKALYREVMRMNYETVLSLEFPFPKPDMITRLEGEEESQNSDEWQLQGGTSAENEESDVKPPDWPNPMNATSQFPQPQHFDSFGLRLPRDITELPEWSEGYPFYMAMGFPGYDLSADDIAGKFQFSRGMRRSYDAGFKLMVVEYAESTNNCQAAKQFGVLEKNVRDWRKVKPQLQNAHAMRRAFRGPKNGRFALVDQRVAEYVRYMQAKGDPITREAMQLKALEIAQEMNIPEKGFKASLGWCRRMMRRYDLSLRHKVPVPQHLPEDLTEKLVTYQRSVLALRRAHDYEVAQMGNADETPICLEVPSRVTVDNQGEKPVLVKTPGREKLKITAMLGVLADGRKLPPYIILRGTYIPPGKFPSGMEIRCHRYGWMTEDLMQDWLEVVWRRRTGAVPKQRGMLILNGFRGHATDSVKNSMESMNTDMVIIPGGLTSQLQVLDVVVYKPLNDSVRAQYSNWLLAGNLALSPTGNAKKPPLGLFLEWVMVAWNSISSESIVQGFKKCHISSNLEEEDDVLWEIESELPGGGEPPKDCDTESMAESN
UniProt Q8N2W9: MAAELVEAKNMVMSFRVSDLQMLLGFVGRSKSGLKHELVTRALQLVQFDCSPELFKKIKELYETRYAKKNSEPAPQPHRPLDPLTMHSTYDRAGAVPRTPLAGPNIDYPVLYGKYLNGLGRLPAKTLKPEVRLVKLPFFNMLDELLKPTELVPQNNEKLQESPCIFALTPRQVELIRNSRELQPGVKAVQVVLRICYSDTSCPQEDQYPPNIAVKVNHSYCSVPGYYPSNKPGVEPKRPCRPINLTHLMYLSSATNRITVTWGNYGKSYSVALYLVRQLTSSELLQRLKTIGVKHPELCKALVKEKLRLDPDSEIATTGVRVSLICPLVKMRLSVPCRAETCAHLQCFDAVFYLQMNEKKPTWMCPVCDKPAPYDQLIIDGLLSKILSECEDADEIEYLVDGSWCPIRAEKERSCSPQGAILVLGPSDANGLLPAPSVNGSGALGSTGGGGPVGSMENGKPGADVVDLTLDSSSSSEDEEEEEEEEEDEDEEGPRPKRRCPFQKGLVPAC
UniProt Q9BUI4: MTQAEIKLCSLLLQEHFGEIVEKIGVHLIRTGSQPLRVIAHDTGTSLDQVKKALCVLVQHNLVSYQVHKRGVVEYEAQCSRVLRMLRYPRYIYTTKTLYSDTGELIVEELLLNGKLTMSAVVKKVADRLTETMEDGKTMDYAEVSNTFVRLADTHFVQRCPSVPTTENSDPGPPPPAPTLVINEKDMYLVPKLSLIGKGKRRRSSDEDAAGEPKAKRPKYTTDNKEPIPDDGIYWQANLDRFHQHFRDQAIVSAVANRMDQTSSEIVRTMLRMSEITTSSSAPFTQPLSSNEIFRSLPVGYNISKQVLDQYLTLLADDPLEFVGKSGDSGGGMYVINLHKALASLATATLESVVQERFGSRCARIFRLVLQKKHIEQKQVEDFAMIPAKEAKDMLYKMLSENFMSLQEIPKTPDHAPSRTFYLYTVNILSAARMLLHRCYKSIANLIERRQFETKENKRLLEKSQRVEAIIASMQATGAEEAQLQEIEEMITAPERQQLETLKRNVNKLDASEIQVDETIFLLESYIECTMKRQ

The list shows a part of the results.

Compound in the assay: COc1ccc(Cn2ccc3ccc(C(=O)NO)cc32)cc1
Briefly: dose-dependent thermal stabilisation call (2D-TPP, DLPTP, 10% FDR) (binary (1 = stabilised)); higher = stabilised by the compound. Particulars: system: HL-60 intact cells; concentration range 0.04-10 µM.
With PMS2 (UniProt P54278), the “dose-dependent thermal stabilisation call” value was inactive: 0. On to PPM1B (UniProt O75688), for which the “dose-dependent thermal stabilisation call” value was inactive: 0.

On to PIK3CG (UniProt P48736), for which the “dose-dependent thermal stabilisation call” value is inactive: 0. Regarding PPP4R1 (UniProt Q8TF05), the “dose-dependent thermal stabilisation call” value is inactive: 0.

As to PIGK (UniProt Q92643), the “dose-dependent thermal stabilisation call” value is inactive: 0. Then POLR1A (UniProt O95602), with inactive: 0; and POM121C (UniProt A8CG34), with inactive: 0; and PIGM (UniProt Q9H3S5), with inactive: 0.

As to PHB2 (UniProt Q99623), the “dose-dependent thermal stabilisation call” value is inactive: 0. POLR2L (UniProt P62875): the “dose-dependent thermal stabilisation call” value was inactive: 0. For PNKP (UniProt Q96T60), the “dose-dependent thermal stabilisation call” value was inactive: 0. With POFUT1 (UniProt Q9H488), the “dose-dependent thermal stabilisation call” value is inactive: 0. The same measure for PLXND1 (UniProt Q9Y4D7): inactive: 0; for PIAS2 (UniProt O75928): inactive: 0. In the case of PPP1R9B (UniProt Q96SB3), the “dose-dependent thermal stabilisation call” value was inactive: 0. In the case of PPM1F (UniProt P49593), the “dose-dependent thermal stabilisation call” value was inactive: 0. For PIP5K3 (UniProt Q9Y2I7), the “dose-dependent thermal stabilisation call” value was inactive: 0. For PLOD3 (UniProt O60568), the “dose-dependent thermal stabilisation call” value was inactive: 0. With PLA2G15 (UniProt Q8NCC3), the “dose-dependent thermal stabilisation call” value is inactive: 0. Turning to PGRMC2 (UniProt O15173), the “dose-dependent thermal stabilisation call” value was inactive: 0.

Take POGK (UniProt Q9P215): the “dose-dependent thermal stabilisation call” value is inactive: 0. Regarding PGK2 (UniProt P07205), the “dose-dependent thermal stabilisation call” value was inactive: 0.

As to PPP1R8 (UniProt Q12972), the “dose-dependent thermal stabilisation call” value was inactive: 0. Then PGS1 (UniProt Q32NB8), with inactive: 0; and PPT1 (UniProt P50897), with inactive: 0. On to PIK3CA (UniProt P42336), for which the “dose-dependent thermal stabilisation call” value is inactive: 0.

On to PPT2 (UniProt Q9UMR5), for which the “dose-dependent thermal stabilisation call” value was inactive: 0.

With PIGQ (UniProt Q9BRB3), the “dose-dependent thermal stabilisation call” value was inactive: 0. Then PJA2 (UniProt O43164), with inactive: 0; and PLS1 (UniProt Q14651), with inactive: 0. PIAS4 (UniProt Q8N2W9): the “dose-dependent thermal stabilisation call” value is inactive: 0.

As for PIK3R4 (UniProt Q99570), the “dose-dependent thermal stabilisation call” value was inactive: 0. Turning to PHKG2 (UniProt P15735), the “dose-dependent thermal stabilisation call” value was inactive: 0. As for POLR3C (UniProt Q9BUI4), the “dose-dependent thermal stabilisation call” value is inactive: 0. As for PPP1R7 (UniProt Q15435), the “dose-dependent thermal stabilisation call” value is inactive: 0. Then PPM1L (UniProt Q5SGD2), with inactive: 0.

As to PRKAR2A (UniProt P13861), the “dose-dependent thermal stabilisation call” value was inactive: 0.
